{"source": "PubChem BioAssay AID1224828 | NIAID | 2016", "aim": "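Regulators linking TLR4 signalling to p65 nuclear translocation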 (primary screen)", "system": "mouse RAW264.7 G9 macrophage reporter cells (GFP-p65, Tnf promoter-mCherry)", "knock-down reagent": "siRNA pool against mouse genes, 100 nM", "duration": "2 days siRNA transfection, then 40 min LPS before fixation", "challenge": "LPS (Salmonella minnesota R595) at 10 ng/ml", "measured": "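Microscopy ratio of nuclear to perinuclear-ring GFP-p65 signal, scaled to the plate median; gene score is the average of two replicate robust z-scores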", "scale": "p65 translocation robust z-score: higher = more nuclear NF-kappaB p65 after LPS than the plate median; nuclear/cytoplasmic p65 ratio: higher = more nuclear NF-kappaB p65", "hit rule": "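Called active when z exceeds 3.3 or falls under -1.56 (median of Tlr4 controls), giving activity score of at least 50; no calls for control wells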", "calls": "active = hit (p65 shift raised or lowered); inactive = no clear change", "note": "This is an unselected part of about 17,000 reagents tested. 762 of all reagents (4.5%) were called active. 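Active calls include both raised and lowered p65 entry, mostly lowered; wells with fewer than 50 cells lack a z-score.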 Raw values vary from plate to plate and are shown uncorrected. Unmarked entries are inactive. Reagent sequences are not shown."}
{"gene symbol": "Phf10 (PHD finger protein 10)", "p65 translocation robust z-score": 0.18, "nuclear/cytoplasmic p65 ratio, rep 1": 1.54, "nuclear/cytoplasmic p65 ratio, rep 2": 1.2, "low cell count flag": "enough cells to score"}
{"gene symbol": "Pax5 (paired box 5)", "p65 translocation robust z-score": -0.17, "nuclear/cytoplasmic p65 ratio, rep 1": 1.51, "nuclear/cytoplasmic p65 ratio, rep 2": 1.31, "low cell count flag": "enough cells to score"}
{"gene symbol": "Sumo2 (small ubiquitin-like modifier 2)", "p65 translocation robust z-score": 0.76, "nuclear/cytoplasmic p65 ratio, rep 1": 1.58, "nuclear/cytoplasmic p65 ratio, rep 2": 1.32, "low cell count flag": "enough cells to score"}
{"gene symbol": "Trav13-5 (T cell receptor alpha variable 13-5)", "p65 translocation robust z-score": "-1.68 (active)", "nuclear/cytoplasmic p65 ratio, rep 1": 1.32, "nuclear/cytoplasmic p65 ratio, rep 2": 1.31, "low cell count flag": "enough cells to score"}
{"gene symbol": "Krtap5-4 (keratin associated protein 5-4)", "p65 translocation robust z-score": 1.5, "nuclear/cytoplasmic p65 ratio, rep 1": 1.55, "nuclear/cytoplasmic p65 ratio, rep 2": 1.83, "low cell count flag": "enough cells to score"}
{"gene symbol": "Efna2 (ephrin A2)", "p65 translocation robust z-score": -0.73, "nuclear/cytoplasmic p65 ratio, rep 1": 1.32, "nuclear/cytoplasmic p65 ratio, rep 2": 1.32, "low cell count flag": "enough cells to score"}
{"gene symbol": "Abcg8 (ATP binding cassette subfamily G member 8)", "p65 translocation robust z-score": 0.15, "nuclear/cytoplasmic p65 ratio, rep 1": 1.65, "nuclear/cytoplasmic p65 ratio, rep 2": 1.62, "low cell count flag": "enough cells to score"}
{"gene symbol": "Pelp1 (proline, glutamic acid and leucine rich protein 1)", "p65 translocation robust z-score": 0.54, "nuclear/cytoplasmic p65 ratio, rep 1": 1.64, "nuclear/cytoplasmic p65 ratio, rep 2": 1.75, "low cell count flag": "enough cells to score"}
{"gene symbol": "Mogs (mannosyl-oligosaccharide glucosidase)", "p65 translocation robust z-score": -1.07, "nuclear/cytoplasmic p65 ratio, rep 1": 1.22, "nuclear/cytoplasmic p65 ratio, rep 2": 1.3, "low cell count flag": "enough cells to score"}
{"gene symbol": "Kcnj12", "p65 translocation robust z-score": 0.17, "nuclear/cytoplasmic p65 ratio, rep 1": 1.59, "nuclear/cytoplasmic p65 ratio, rep 2": 1.44, "low cell count flag": "enough cells to score"}
{"gene symbol": "Vipas39", "p65 translocation robust z-score": -0.31, "nuclear/cytoplasmic p65 ratio, rep 1": 1.52, "nuclear/cytoplasmic p65 ratio, rep 2": 1.68, "low cell count flag": "enough cells to score"}
{"gene symbol": "Or7e168 (olfactory receptor family 7 subfamily E member 168)", "p65 translocation robust z-score": 3.14, "nuclear/cytoplasmic p65 ratio, rep 1": 1.84, "nuclear/cytoplasmic p65 ratio, rep 2": 2.16, "low cell count flag": "enough cells to score"}
